Earlier results as cited in patent US20100137247A1, “Anti-inflammatory compositions and methods” (Searete LLC, a limited liability corporation of the State …, priority 2008, published 2010).
For at least one compound, name, drawing or mass did not settle the structure.

System: malarial parasites, Leishmania, Giardia

Compound: CCN(CC)C(=S)S [Diethyldithiocarbamate]
- toxicity to malarial parasites and other parasites including Leishmania and Giardia: toxic
